No constants are given. Whether binding was seen depends on the method and setting. Where a sequence is shown, tags or fusion partners need not be part of it.
Molecular target: Mycobacterium tuberculosis methionyl-tRNA synthetase with a single N-terminal 6×His tag (Mycobacterium tuberculosis H37RV) (UniProt P9WFU5)
Test: SEC; Superdex 200 300/10 GL column calibrated with protein standards (thyroglobulin, γ-globulin, ovalbumin, myoglobin, vitamin B12); mass from SEC 60.3 kDa against theoretical 59.3 kDa; both purified

B1: Mycobacterium tuberculosis methionyl-tRNA synthetase with a single N-terminal 6×His tag (enzyme, UniProt P9WFU5 1-519)
chain: MKPYYVTTAIAYPNAAPHVGHAYEYIATDAIARFKRLDRYDVRFLTGTDEHGLKVAQAAAAAGVPTAALARRNSDVFQRMQEALNISFDRFIRTTDADHHEASKELWRRMSAAGDIYLDNYSGWYSVRDERFFVESETQLVDGTRLTVETGTPVTWTEEQTYFFRLSAYTDKLLAHYHANPDFIAPETRRNEVISFVSGGLDDLSISRTSFDWGVQVPEHPDHVMYVWVDALTNYLTGAGFPDTDSELFRRYWPADLHMIGKDIIRFHAVYWPAFLMSAGIELPRRIFAHGFLHNRGEKMSKSVGNIVDPVALAEALGVDQVRYFLLREVPFGQDGSYSDEAIVTRINTDLANELGNLAQRSLSMVAKNLDGRVPNPGEFADADAALLATADGLLERVRGHFDAQAMHLALEAIWLMLGDANKYFSVQQPWVLRKSESEADQARFRTTLYVTCEVVRIAALLIQPVMPESAGKILDLLGQAPNQRSFAAVGVRLTPGTALPPPTGVFPRYQPPQPPEGK
  binding: no binding

— publication PMC6038951
